Data as given in PubChem BioAssay AID743255 (National Center for Advancing Translational Sciences (NCATS), 2014).
Among all 390,000 compounds or so, about 910 (0.23%) were called active. The inconclusive results got no clear call from the source; some entries with a clear call stand among them for comparison. The call rests on the fitted dose curve; in most records, active means well fitted inhibition curve with a large enough effect; inconclusive means small, poorly fitted or top-dose-only effect; inactive means no such curve, though single readings can be large or run the other way. A potency beside an inconclusive call is a rough fit, not a confirmed value.

Sequences of proteins named here, by UniProt entry; tags and fusion partners are left off. A change or cut given only in a name is not applied to a line headed by its entry.
UniProt O94782: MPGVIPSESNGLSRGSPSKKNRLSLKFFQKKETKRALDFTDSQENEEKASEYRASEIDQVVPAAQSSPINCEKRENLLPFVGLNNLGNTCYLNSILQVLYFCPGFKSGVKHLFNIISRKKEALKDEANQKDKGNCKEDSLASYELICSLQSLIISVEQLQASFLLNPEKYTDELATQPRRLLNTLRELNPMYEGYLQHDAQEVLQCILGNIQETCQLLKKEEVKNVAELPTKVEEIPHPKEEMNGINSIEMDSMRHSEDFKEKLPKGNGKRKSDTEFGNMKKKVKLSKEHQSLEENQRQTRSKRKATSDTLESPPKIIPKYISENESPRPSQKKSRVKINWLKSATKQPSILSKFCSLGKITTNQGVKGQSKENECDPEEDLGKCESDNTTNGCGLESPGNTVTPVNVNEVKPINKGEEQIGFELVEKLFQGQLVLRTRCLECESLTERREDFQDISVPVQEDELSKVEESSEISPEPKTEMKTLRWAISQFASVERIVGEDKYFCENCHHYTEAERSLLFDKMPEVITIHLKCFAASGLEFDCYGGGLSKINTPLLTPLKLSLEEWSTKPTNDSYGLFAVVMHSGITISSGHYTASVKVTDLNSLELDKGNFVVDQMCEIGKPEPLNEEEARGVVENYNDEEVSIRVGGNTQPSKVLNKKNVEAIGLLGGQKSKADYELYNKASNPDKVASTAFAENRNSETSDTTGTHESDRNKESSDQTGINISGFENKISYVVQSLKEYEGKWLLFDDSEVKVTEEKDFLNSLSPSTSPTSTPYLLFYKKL

The molecules below were run against Ubiquitin carboxyl-terminal hydrolase 1 (Homo sapiens) (UniProt O94782) (assay: Inhibitors of USP1/UAF1: Primary Screen). Conditions: recombinant USP1/UAF1, Ub-Rhodamine cleavage fluorescence; activity change, negative = inhibition: at 57.1 µM (top of the series).
Procedure, shortened: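 USP1/UAF1 complex at 1 nM was preincubated with compound for 15 min at room temperature, then Ub-Rho substrate (150nM final) was added. Fluorescence (480/540 nm) was read kinetically, 6 reads every 60 seconds.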
Further: nearly all actives have a fitted effect of over 60% in size.
On the % scale 0 is the no-effect control and ±100 the full control effect; potency means the concentration at half of the fitted maximal effect.

SMILES | Potency | activity change, negative = inhibition
CC(C)c1ccc(C2CC(=O)Nc3cc4c(cc32)OCCO4)cc1 (centres undefined) | inconclusive: 3.55 µM [inhibitor, full curve] | 
Cc1cccc(C(C)C)c1-n1nnnc1-c1ccccc1 | inconclusive: 44.7 µM [inhibitor, single point] | 
CN1CCN(C(=O)CCCN2C(=O)/C(=C/c3ccc(Cl)cc3)SC2=S)CC1 |  | inactive: -22.4%
Cc1sc2nc(CN(C(=O)NC3CCCCC3)C3CCCCC3)[nH]c(=O)c2c1C | inconclusive: 28.2 µM [inhibitor, single point] | 
COC(=O)c1c(-c2ccc(C)cc2)csc1NC(=O)Cc1ccc(OC)c(OC)c1 | inconclusive: 39.8 µM [inhibitor, partial curve] | 
Cc1ccc(OC(=O)N(C)C[C@@H]2OCc3cn(nn3)CCCC(=O)N([C@@H](C)CO)C[C@H]2C)cc1 | inconclusive: 0.251 µM [inhibitor, full curve, poor fit] | 
CC1=C(C(=O)OCc2ccccc2)C(c2ccccc2OS(=O)(=O)c2ccccc2[N+](=O)[O-])NC(=O)N1CCCC(=O)O (centres undefined) | inconclusive: 44.7 µM [inhibitor, partial curve, poor fit] | 
COc1cc(/C=C2/C(=N)N3C=CSC3=NC2=O)ccc1OCCCOc1c(C)cccc1C | inconclusive: 31.6 µM [inhibitor, single point] | 
COC(=O)Oc1c(Br)c(=O)oc2ccccc12 |  | inactive: -22%
O=C(Nc1ccccc1F)C1(c2ccccc2)CC1(Cl)Cl (centres undefined) | inconclusive: 79.4 µM [inhibitor, partial curve, poor fit] | 
Cn1nc(C(=O)NCC(=O)Nc2ccc(F)c(F)c2)ccc1=O | inconclusive: 0.316 µM [inhibitor, full curve, poor fit] | 
Cc1cccc(NC(=O)c2nc[nH]c2C(=O)N2CCN(c3ccccc3)CC2)c1 | inconclusive: 17.8 µM [inhibitor, partial curve] | 
O=[N+]([O-])c1ccccc1CNCCO | inconclusive: 3.16 µM [inhibitor, full curve] | 
CCC[C@H]1CN(Cc2ccccc2)C(=O)[C@@H]1CC(=O)NC | inconclusive: 0.282 µM [inhibitor, full curve, poor fit] | 
Cc1cccc(-c2ccc3[nH]c4c(c3c2)CCN2C[C@@H]([C@H](C)O)[C@@H](N(C)C(=O)NC3CCCCC3)C[C@@H]42)c1 | inconclusive: 28.2 µM [inhibitor, partial curve] | 
CC(C#N)(NC(=O)CN1CCN(S(=O)(=O)c2cccc(F)c2)CC1)C1CC1 (centres undefined) | inconclusive: 0.1 µM [inhibitor, full curve, poor fit] | 
O=C(NCc1cccc(F)c1)c1ccccc1NC(=O)c1nsc2ccccc12 | inconclusive: 0.355 µM [inhibitor, full curve, poor fit] | 
O=C(NCc1ccc2c(c1)OCO2)c1nnc(Cc2ccc(F)cc2)o1 | inconclusive: 5.01 µM [inhibitor, single point] | 
C[C@@H]1CN([C@@H](C)CO)S(=O)(=O)c2ccc(Br)cc2O[C@H]1CN(C)C(=O)Nc1ccc(C(F)(F)F)cc1 | inconclusive: 0.251 µM [inhibitor, full curve] | 
CCc1c(C2(O)CCCCC2)[nH]c2c(C(=O)OC)cc(Cl)cc12 | inconclusive: 44.7 µM [inhibitor, partial curve] | 
COc1ccc(NC(=O)c2cnc(N3CCCC3)nc2)cc1OC | inconclusive: 10 µM [inhibitor, partial curve, poor fit] | 
N#Cc1cc([N+](=O)[O-])ccc1NCCCn1ccnc1 |  | inactive: -8.63%

Quoted from the listing:
Entry for `COc1ccc(NC(=O)c2cnc(N3CCCC3)nc2)cc1OC` under Potency: inconclusive: 10 µM [inhibitor, partial curve, poor fit]
Entry for `COC(=O)Oc1c(Br)c(=O)oc2ccccc12` under activity change, negative = inhibition: inactive: -22%

(next part)

SMILES | Potency | activity change, negative = inhibition
COc1cc2c(cc1OC)C(=O)N(C)CC2 |  | inactive: -18.3%
COc1ccccc1C(=O)N(c1ccc(C)cc1)S(=O)(=O)c1ccc(Cl)cc1 | inconclusive: 0.891 µM [inhibitor, full curve] | 
CCC(C)NC(=O)CN(c1ccc(OC)cc1)S(=O)(=O)c1ccccc1 (centres undefined) |  | inactive: 5.97%
COc1ccc(NC(=O)Nc2cccc(C(F)(F)F)c2)cn1 |  | inactive: -11.6%
Cc1cc(C)c2nc(-c3ccccn3)cc(C(=O)Nc3ccc(S(=O)(=O)Nc4cc(C)on4)cc3)c2c1 | inconclusive: 35.5 µM [inhibitor, partial curve] | 
CC1=CC(C)(C)n2c(O)c(N=N)c3c(C)ccc1c32 |  | inactive: -20.3%
Cn1cnc(S(=O)(=O)Nc2ccc(OC(F)(F)F)cc2)c1 | inconclusive: 31.6 µM [inhibitor, partial curve] | 
CCCOC(=O)c1cc(-c2ccc(/C=C3/C(=O)N(C)C(=O)C(C#N)=C3C)o2)ccc1Cl |  | inconclusive: -35.5% [inhibitor]
NC(=O)C[n+]1cccc2ccccc21 | inconclusive: 15.8 µM [inhibitor, partial curve] | 
CCCn1c(N)c(N(CCOC)C(=O)c2ccc(F)cc2F)c(=O)[nH]c1=O | inconclusive: 0.398 µM [inhibitor, full curve, poor fit] | 
Cc1cc2cc(C(c3nnnn3Cc3ccco3)N3CCc4ccccc4C3)c(=O)[nH]c2cc1C (centres undefined) | inconclusive: 44.7 µM [inhibitor, partial curve, poor fit] | 
Cc1csc(NC(=O)c2cc3c(s2)-c2ccccc2OC3)n1 | inconclusive: 4.47 µM [inhibitor, partial curve] | 
O=C(NNC1CC(=O)N(c2ccc(Br)cc2)C1=O)c1ccccn1 (centres undefined) | inconclusive: 8.91 µM [inhibitor, partial curve] | 
CCN1CCN(Cc2ccc(NC(=O)c3ccc(C)c(NC(=O)c4c[nH]c5cc(C(F)(F)F)ccc5c4=O)c3)cc2C(F)(F)F)CC1 | inconclusive: 0.224 µM [inhibitor, full curve, poor fit] | 
Cc1ccc(CNC(=O)CSc2nc3ccccc3nc2Cc2ccc(C)cc2)cc1 | inconclusive: 1120 µM [inhibitor, partial curve, poor fit] | 
Cc1ccc(NC(=O)CN2C(=O)S/C(=C/c3ccc(-c4cccc(C(=O)O)c4)o3)C2=O)cc1 |  | inactive: -33.1%
CN(C)c1ccc(CNCC2CCCO2)cc1 (centres undefined) | inconclusive: 7.94 µM [inhibitor, partial curve, poor fit] | 
c1ccc(CN2CCC(Nc3nc(-c4cccnc4)nc4ccccc34)CC2)cc1 | inconclusive: 6.31 µM [inhibitor, single point] | 
O=C1/C(=C/c2ccc(F)cc2)CCC1C1CCCC1 (centres undefined) |  | inactive: -10.8%
CN1CCN(C(c2ccc(F)cc2)c2nnnn2Cc2cccs2)CC1 (centres undefined) |  | inactive: 0.439%
CCC(C)C1/C=C\CC(NC(=O)OCC2c3ccccc3-c3ccccc32)CC(=O)N1Cc1ccccc1 (centres undefined) | inconclusive: 89.1 µM [inhibitor, partial curve, poor fit] | 
O=C(NC1CCCCNC1=O)c1ccco1 (centres undefined) | inconclusive: 44.7 µM [inhibitor, partial curve, poor fit] | 

SMILES | Potency | activity change, negative = inhibition
COC(=O)c1cc(S(=O)(=O)NCC2CCN(Cc3cccc(F)c3)CC2)cn1C | inconclusive: 7.94 µM [inhibitor, partial curve, poor fit] | 
Cn1c(=O)c(/C=C/c2ccc(F)cc2)nc2ccccc21 |  | inactive: -15.6%
CC(=O)Nc1ccc(SCCN2CC[C@@H](C(C)(C)C)CCC2=O)cc1 | inconclusive: 35.5 µM [inhibitor, partial curve] | 
Cc1onc(-c2ccccc2Cl)c1C(=O)c1ccccc1 |  | inactive: -15.5%
O=C(/C=C/c1ccccc1)Nc1cccc(C(=O)NCCCCc2ccccc2)c1 | inconclusive: 0.251 µM [inhibitor, full curve, poor fit] | 
CN1C(=S)N(c2cccnc2)C(=O)/C1=C\c1ccc(N(C)C)cc1 |  | inactive: -18.2%
CCOc1ccccc1NC(=O)CSc1ccc2nnc(-c3cccnc3)n2n1 | inconclusive: 7.08 µM [inhibitor, single point] | 
O=C(NCCc1ccc(Cl)cc1)C1CCN(S(=O)(=O)c2ccc3[nH]ccc3c2)CC1 |  | inactive: -6.94%
Cn1c(=O)c2[nH]c(=S)n(Cc3ccccc3)c2n(C)c1=O | inconclusive: 316 µM [inhibitor, partial curve, poor fit] | 
O=C(NCCO)c1ccc2nc(-c3ccco3)c(-c3ccco3)nc2c1 | active: 31.6 µM | 
O=c1[nH]nc(-c2ccc(F)cc2)cc1-c1ccccc1 | inconclusive: 44.7 µM [inhibitor, partial curve] | 
CC1CCCN(C(=O)C2CCN(S(=O)(=O)c3ccc4c(c3)CC(C)N4C(=O)C3CC3)CC2)C1 (centres undefined) |  | inactive: -7.06%
CC1=NN(c2ccccc2)C(=O)C1C=Nc1ccccc1O (centres undefined) | inconclusive: 50.1 µM [inhibitor, partial curve, poor fit] | 
Cc1ccc(NC(=O)OCCN2CCN(S(=O)(=O)c3ccc(C)cc3)CCC2=O)cc1 | inconclusive: 44.7 µM [inhibitor, partial curve] | 
CCCN1C(=O)S/C(=C\c2ccc(N3CCOCC3)o2)C1=O | active: 25.1 µM | 
O=C(c1cccnc1)N(Cc1ccccc1)C(=O)c1cccnc1 | inconclusive: 44.7 µM [inhibitor, partial curve, poor fit] | 
Cc1nn(-c2ccccc2)c(C)c1P(=O)(c1ccccc1)N(C)C (centres undefined) | inconclusive: 0.631 µM [inhibitor, full curve, poor fit] | 
O=C(NCC(c1cccs1)S(=O)(=O)c1cccs1)c1c(F)cccc1F (centres undefined) | inconclusive: 28.2 µM [inhibitor, single point] | 
COc1ccc(OC)c(S(=O)(=O)Nc2cccc(C(C)=O)c2)c1 | inconclusive: 0.631 µM [inhibitor, full curve, poor fit] | 
CCOc1ccccc1CNC(=O)CN1C(=O)CSc2ccc(S(=O)(=O)N3CCOCC3)cc21 | inconclusive: 70.8 µM [inhibitor, partial curve, poor fit] | 
